Test results: the supplement of paper PMC12819154, “High-throughput peptide-centric local stability assay extends protein–ligand identification to membrane proteins, tissues and bacteria” (Nature Structural & Molecular Biology, 2025)
This is one part of the list. Most values lie at the level of the controls, where differences are scatter.

The chains behind the UniProt entries cited, without tags or fusion partners. Where a name states a change or a piece, a line headed by the entry shows the natural chain unless it says otherwise.
UniProt Q00993, whole entry: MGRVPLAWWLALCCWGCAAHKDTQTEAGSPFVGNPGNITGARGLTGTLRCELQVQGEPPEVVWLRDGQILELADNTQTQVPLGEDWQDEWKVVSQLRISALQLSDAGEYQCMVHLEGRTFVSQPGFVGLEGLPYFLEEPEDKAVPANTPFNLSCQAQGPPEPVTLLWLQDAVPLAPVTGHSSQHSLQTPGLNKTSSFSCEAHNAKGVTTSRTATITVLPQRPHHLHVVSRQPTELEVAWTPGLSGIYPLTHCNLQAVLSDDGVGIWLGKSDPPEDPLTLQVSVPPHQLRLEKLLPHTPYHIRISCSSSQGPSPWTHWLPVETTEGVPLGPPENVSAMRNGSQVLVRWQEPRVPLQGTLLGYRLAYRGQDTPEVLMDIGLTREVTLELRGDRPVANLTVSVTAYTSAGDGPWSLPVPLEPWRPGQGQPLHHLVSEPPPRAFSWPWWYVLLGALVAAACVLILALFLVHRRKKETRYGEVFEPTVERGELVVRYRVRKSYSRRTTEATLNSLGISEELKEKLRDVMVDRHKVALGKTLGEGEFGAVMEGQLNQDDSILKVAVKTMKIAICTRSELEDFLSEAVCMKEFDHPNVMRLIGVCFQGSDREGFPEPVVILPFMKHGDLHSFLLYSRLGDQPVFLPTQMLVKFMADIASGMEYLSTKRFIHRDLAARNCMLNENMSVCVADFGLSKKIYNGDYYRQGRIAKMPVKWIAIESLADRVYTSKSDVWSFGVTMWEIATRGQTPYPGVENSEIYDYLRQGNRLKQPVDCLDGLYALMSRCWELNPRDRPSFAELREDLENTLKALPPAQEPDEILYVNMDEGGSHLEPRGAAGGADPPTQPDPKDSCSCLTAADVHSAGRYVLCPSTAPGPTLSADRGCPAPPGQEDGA
UniProt Q00519, whole entry: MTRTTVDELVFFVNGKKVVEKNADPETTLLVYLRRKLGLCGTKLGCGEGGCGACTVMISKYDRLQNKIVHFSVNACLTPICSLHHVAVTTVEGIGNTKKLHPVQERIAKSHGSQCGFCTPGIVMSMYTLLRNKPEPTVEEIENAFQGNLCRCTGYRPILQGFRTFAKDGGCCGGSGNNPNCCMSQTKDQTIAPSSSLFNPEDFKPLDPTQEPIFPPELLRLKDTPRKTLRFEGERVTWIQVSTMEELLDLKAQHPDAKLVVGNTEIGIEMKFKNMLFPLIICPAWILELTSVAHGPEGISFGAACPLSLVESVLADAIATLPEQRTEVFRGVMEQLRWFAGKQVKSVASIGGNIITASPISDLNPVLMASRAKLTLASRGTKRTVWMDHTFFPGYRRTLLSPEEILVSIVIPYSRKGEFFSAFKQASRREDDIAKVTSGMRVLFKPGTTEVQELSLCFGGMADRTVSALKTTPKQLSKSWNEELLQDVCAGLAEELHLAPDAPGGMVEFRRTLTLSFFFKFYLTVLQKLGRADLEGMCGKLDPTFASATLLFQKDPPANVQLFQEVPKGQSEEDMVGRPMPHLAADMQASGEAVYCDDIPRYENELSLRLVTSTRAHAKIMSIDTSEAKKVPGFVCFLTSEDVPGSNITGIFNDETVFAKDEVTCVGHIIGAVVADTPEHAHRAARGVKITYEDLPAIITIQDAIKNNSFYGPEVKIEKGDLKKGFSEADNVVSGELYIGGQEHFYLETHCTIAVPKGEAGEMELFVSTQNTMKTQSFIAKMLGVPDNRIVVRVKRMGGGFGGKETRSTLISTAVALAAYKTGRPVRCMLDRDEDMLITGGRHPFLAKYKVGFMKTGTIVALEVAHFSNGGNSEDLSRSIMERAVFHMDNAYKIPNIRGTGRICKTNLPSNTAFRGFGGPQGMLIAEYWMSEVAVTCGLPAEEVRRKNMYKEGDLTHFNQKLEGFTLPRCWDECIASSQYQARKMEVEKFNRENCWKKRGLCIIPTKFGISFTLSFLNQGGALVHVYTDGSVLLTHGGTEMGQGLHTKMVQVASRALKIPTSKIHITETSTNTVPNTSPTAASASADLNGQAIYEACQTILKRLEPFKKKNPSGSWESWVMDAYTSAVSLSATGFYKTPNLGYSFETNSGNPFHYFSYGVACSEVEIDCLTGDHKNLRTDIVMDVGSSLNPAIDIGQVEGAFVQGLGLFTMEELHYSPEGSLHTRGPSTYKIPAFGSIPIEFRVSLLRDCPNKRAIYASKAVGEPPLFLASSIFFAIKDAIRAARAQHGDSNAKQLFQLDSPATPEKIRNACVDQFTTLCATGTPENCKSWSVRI
UniProt P80317, whole entry: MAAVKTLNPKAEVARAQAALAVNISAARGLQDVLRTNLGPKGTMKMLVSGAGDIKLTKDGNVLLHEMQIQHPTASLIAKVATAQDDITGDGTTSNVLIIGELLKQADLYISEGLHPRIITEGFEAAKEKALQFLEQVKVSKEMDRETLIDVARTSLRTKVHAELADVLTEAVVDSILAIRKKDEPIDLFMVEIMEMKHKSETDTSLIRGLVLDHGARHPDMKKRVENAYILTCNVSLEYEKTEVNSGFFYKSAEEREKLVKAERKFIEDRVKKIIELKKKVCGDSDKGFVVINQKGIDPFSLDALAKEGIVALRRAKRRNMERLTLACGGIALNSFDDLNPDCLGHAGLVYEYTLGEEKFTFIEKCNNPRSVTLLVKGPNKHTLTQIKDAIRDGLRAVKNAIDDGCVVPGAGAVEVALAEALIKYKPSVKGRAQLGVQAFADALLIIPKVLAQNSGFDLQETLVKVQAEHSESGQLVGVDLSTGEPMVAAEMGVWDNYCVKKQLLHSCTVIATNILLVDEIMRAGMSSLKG
UniProt P70290: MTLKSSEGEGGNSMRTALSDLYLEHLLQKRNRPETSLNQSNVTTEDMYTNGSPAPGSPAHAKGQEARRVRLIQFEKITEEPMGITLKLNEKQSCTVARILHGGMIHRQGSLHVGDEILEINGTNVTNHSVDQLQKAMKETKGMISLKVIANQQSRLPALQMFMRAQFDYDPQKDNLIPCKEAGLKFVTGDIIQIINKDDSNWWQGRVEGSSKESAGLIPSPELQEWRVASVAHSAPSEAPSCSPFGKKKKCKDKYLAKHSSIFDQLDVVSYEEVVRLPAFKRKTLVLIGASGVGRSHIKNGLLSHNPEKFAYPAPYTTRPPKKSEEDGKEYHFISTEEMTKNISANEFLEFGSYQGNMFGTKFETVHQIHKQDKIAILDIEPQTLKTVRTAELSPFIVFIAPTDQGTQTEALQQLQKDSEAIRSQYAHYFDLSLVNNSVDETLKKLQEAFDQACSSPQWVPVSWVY
UniProt Q02111: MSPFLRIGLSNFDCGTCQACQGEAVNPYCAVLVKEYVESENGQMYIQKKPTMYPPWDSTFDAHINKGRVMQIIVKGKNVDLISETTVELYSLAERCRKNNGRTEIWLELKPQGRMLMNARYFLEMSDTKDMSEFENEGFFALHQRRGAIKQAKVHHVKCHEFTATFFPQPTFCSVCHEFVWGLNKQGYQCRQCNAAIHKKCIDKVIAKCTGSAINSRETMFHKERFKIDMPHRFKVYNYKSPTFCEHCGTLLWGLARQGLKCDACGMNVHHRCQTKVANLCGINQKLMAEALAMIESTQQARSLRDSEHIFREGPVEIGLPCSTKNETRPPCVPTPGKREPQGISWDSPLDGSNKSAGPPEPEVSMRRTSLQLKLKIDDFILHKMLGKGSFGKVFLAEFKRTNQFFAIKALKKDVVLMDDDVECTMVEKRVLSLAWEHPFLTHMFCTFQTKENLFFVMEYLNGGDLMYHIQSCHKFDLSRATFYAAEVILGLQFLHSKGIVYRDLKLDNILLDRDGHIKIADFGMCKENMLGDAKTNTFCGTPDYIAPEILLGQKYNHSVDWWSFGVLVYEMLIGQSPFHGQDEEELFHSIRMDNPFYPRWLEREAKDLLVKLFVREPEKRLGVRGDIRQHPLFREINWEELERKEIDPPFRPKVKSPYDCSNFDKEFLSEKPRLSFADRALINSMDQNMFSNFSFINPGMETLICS
UniProt P70698: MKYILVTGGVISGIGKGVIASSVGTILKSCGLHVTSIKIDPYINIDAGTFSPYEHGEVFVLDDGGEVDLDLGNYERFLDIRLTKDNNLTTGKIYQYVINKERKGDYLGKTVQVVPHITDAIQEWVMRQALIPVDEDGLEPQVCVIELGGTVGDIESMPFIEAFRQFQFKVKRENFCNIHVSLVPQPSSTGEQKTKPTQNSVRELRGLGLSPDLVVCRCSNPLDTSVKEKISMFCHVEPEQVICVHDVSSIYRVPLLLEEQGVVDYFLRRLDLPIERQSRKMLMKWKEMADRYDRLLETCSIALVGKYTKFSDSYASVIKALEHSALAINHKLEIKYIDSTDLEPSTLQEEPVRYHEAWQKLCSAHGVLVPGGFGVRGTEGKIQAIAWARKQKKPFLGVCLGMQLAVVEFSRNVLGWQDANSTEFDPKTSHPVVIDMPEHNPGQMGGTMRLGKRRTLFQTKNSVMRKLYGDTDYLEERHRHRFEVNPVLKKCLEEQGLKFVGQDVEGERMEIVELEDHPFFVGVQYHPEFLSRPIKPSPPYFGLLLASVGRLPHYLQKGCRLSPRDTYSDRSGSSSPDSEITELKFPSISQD
UniProt P70362: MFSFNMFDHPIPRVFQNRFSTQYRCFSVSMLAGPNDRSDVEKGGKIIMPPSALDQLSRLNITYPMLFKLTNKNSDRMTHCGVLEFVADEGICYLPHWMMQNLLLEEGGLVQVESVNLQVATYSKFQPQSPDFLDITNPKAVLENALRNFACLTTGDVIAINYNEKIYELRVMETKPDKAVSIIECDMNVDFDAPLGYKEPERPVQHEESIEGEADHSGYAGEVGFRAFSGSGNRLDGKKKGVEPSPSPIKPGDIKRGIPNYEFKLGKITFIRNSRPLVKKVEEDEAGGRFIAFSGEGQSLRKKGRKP
UniProt P97379: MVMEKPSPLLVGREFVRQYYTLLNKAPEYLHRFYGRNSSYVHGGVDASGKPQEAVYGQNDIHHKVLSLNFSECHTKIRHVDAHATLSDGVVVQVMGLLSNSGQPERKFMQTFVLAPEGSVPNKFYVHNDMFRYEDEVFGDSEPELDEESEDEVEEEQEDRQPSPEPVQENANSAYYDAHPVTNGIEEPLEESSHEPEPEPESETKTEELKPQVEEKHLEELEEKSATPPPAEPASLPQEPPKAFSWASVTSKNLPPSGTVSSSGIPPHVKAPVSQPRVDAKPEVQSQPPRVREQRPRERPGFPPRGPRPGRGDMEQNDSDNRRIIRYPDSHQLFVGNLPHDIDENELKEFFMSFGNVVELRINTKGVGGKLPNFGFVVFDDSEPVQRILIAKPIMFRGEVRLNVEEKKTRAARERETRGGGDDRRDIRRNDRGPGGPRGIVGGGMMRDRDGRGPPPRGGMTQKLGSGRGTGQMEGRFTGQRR
UniProt P70677: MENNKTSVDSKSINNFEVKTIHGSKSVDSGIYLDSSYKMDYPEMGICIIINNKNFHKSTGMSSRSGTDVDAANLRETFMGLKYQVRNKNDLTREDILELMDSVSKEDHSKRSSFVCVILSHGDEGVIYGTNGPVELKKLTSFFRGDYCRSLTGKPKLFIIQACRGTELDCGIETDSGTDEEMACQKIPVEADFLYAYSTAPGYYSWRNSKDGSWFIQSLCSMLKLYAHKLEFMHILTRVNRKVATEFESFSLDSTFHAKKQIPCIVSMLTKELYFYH
UniProt Q00899, whole entry: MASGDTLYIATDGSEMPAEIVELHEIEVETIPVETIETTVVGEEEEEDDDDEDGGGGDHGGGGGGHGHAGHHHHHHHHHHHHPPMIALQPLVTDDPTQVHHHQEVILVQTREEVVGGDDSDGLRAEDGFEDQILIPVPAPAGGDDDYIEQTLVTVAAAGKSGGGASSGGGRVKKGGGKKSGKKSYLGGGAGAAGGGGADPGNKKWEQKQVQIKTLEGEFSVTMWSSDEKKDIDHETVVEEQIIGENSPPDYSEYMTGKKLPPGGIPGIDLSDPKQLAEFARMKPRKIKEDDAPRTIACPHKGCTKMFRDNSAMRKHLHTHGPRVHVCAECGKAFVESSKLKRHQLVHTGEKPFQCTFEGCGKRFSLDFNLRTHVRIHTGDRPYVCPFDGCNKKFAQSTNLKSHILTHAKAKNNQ
UniProt P70122: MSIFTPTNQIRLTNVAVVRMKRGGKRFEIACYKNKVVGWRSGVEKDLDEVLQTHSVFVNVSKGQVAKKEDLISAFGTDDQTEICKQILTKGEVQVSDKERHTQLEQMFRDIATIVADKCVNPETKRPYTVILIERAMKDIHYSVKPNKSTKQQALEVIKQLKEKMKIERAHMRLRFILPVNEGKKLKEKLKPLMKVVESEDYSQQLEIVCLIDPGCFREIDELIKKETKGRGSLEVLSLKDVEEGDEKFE
UniProt P70195: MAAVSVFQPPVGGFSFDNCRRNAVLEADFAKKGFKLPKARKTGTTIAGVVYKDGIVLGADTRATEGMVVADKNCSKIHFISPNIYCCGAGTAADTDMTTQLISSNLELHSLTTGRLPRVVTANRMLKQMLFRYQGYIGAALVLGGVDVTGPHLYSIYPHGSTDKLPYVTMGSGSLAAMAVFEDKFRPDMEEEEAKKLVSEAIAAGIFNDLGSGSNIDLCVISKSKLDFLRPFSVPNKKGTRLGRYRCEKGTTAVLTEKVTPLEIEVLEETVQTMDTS

Each target was assayed with CN[C@@H]1C[C@H]2O[C@@](C)([C@@H]1OC)n1c3ccccc3c3c4c(c5c6ccccc6n2c5c31)C(=O)NC4 [staurosporine] (assay: log2 fold change of tryptic peptide abundance, ligand vs vehicle (limited proteolysis) (log2 ratio); higher = more trypsin-susceptible (destabilized)). Conditions: ligand concentration: 20 uM; sample: mouse liver crude lysate; replicate design: treated separately.
Work on “UniProt Q00993 (peptide sequence: WIAIESLADR, peptide start residue: 709)” yielded a log2 fold change of -0.67. “UniProt P97313 (peptide sequence: LLEEALLR, peptide start residue: 2893)” showed a log2 fold change of 0.233. Work on “UniProt Q00519 (peptide sequence: LEGFTLPR, peptide start residue: 962)” yielded a log2 fold change of -0.142. Target “UniProt P97772 (peptide sequence: KLLDFLIK, peptide start residue: 449)” has a log2 fold change of 0.829. Work on “UniProt P97440 (peptide sequence: KLLINDFGR, peptide start residue: 98)” yielded a log2 fold change of 0.439. “UniProt P80317 (peptide sequence: GIDPFSLDALAK, peptide start residue: 296)” showed a log2 fold change of -0.295. “UniProt P70175 (peptide sequence: RDNEVDGQDYHFVVSR, peptide start residue: 696)” showed a log2 fold change of 0.328. For “UniProt P70290 (peptide sequence: AQFDYDPQKDNLIPCK, peptide start residue: 165)”, the log2 fold change was -0.14. “UniProt P97333 (peptide sequence: TFCHWEHDSHAQLR, peptide start residue: 659)” was tested, and the log2 fold change was 0.0799. Work on “UniProt Q02111 (peptide sequence: SAGPPEPEVSMR, peptide start residue: 356)” yielded a log2 fold change of 0.247. Work on “UniProt P97465 (peptide sequence: DAWWCQAR, peptide start residue: 384)” yielded a log2 fold change of -0.335. Work on “UniProt P70698 (peptide sequence: IYQYVINK, peptide start residue: 93)” yielded a log2 fold change of -0.193. “UniProt P70663 (peptide sequence: HGGYLNEK, peptide start residue: 531)” showed a log2 fold change of -0.588. “UniProt P70362 (peptide sequence: FIAFSGEGQSLRK, peptide start residue: 290)” gave a log2 fold change of -0.132. “UniProt Q00724 (peptide sequence: YWGVASFLQR, peptide start residue: 108)” gave a log2 fold change of -0.143. Work on “UniProt P81069 (peptide sequence: DVVELLIK, peptide start residue: 118)” yielded a log2 fold change of 0.251. With “UniProt P97379 (peptide sequence: QYYTLLNK, peptide start residue: 18)” the log2 fold change was 0.167. Target “UniProt P70677 (peptide sequence: SGTDVDAANLR, peptide start residue: 65)” has a log2 fold change of -0.282. “UniProt P80314 (peptide sequence: KIHPQTIISGWR, peptide start residue: 120)” was tested, and the log2 fold change was -0.382. “UniProt Q00899 (peptide sequence: KIKEDDAPR, peptide start residue: 286)” gave a log2 fold change of 0.236. “UniProt P97372 (peptide sequence: LLALLALVKPEVWTLKEK, peptide start residue: 100)” showed a log2 fold change of 0.512. For “UniProt P70122 (peptide sequence: FILPVNEGKK, peptide start residue: 176)”, the log2 fold change was 0.348. With “UniProt P70195 (peptide sequence: GTTAVLTEK, peptide start residue: 250)” the log2 fold change was -0.237. “UniProt P98195 (peptide sequence: AAYYSSAGPGPGADRR, peptide start residue: 22)” gave a log2 fold change of -0.215. “UniProt P70398 (peptide sequence: WVVPVLPK, peptide start residue: 84)” was tested, and the log2 fold change was -0.335. With “UniProt P98197 (peptide sequence: GADSSIFPR, peptide start residue: 564)” the log2 fold change was -0.152. “UniProt P97369 (peptide sequence: IPALNAYMK, peptide start residue: 106)” was tested, and the log2 fold change was 0.272. In the case of “UniProt P97494 (peptide sequence: KVQLLLNGGDVLETLQEKGER, peptide start residue: 64)”, the log2 fold change is reported as -0.435. “UniProt Q02384 (peptide sequence: KKFDHDALNSK, peptide start residue: 1154)” was tested, and the log2 fold change was 1.01. Target “UniProt P70389 (peptide sequence: AFWLDLSHNR, peptide start residue: 484)” has a log2 fold change of 0.34. Work on “UniProt P83093 (peptide sequence: KAEKEFELR, peptide start residue: 334)” yielded a log2 fold change of 0.556.
